For one substance, binding results are on record in publication PMC6696983.

Protein sequences, listed by entry. Tags and fused reporters are not part of them. Lines headed by an entry give the natural chain unless they say otherwise; changes in a name come on top. Chains listed by the source or under a name are the forms on record and can include a tag or linker. Residues count along the entry.
UniProt P11021, residues 19-654: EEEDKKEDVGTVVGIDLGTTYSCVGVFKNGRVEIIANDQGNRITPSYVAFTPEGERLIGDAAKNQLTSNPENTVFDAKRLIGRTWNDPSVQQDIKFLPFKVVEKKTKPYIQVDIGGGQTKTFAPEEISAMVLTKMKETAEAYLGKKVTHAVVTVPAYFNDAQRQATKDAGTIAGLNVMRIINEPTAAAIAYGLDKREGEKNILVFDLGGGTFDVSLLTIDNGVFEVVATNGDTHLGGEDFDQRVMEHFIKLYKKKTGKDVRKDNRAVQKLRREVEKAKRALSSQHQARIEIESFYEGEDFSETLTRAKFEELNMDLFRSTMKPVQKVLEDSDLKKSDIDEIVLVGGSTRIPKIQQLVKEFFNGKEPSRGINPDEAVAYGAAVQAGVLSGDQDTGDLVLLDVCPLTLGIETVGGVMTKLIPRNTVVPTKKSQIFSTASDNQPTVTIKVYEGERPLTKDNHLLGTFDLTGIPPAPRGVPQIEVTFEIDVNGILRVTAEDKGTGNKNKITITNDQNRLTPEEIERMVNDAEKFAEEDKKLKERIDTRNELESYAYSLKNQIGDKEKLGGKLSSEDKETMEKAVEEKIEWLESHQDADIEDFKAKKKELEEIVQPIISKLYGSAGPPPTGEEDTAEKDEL
CD44v fused to the photoactivatable green fluorescent protein (CD44v-PAGFP) (P16070-4, form named): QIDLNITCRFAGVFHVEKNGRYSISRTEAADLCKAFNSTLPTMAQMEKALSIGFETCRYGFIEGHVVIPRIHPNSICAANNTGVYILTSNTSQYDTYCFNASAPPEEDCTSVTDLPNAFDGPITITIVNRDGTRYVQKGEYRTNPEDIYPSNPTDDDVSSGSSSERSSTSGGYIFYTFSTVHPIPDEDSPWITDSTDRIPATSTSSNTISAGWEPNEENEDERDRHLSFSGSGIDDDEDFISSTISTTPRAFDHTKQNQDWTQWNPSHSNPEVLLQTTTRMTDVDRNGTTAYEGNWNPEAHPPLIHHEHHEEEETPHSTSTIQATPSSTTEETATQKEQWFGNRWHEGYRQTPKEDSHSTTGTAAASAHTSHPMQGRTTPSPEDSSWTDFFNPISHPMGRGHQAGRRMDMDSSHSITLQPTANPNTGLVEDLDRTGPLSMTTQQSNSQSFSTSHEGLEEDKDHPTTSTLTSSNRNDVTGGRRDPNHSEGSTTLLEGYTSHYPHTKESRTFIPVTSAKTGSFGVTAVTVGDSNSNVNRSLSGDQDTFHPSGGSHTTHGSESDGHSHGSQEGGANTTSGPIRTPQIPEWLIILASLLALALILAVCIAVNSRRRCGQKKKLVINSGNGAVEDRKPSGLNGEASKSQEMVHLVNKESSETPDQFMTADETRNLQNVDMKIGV

Results are given in words; binding and its absence hold for the method and conditions named. Some results given as binding are weak or reduced against the parent protein; the word gives no strength.

The target of the assay is GRP78 fused to the photoactivatable Tag-red fluorescent protein (PATagRFP-GRP78) (human) (UniProt P11021). Description: dual-color single-particle tracking (sptPALM, TIRF); live MCF7-LR cells co-transfected with PATagRFP-GRP78 and CD44v-PAGFP, on collagen I-coated coverslips, 30 ms/frame; co-diffusion and co-confinement of single trajectories at the plasma membrane.

“CD44v fused to the photoactivatable green fluorescent protein (CD44v-PAGFP) (from UniProt P16070-4 21-699) (receptor)”: the binding entry is on record as “binds”.
